Test results from patent US20220125891A1.
No constants are given. Whether binding was seen depends on the method and setting. Some results given as binding are weak or reduced against the parent protein; the word gives no strength. Tags and fused reporters may be left off the sequences shown.

Target: C-terminal segment (441 to 598) of mouse Regnase-1, released from GST (mouse) (UniProt Q5D1E7)
Experiment: gel filtration, self-association

binding: binds
B1: C-terminal segment (441 to 598) of mouse Regnase-1, released from GST (protein)
chain: ESQMSELWGVRGGSPGESGPTRGPYAGYHSYGSKVPAAPSFSPFRPAMGAGHFSVPTDYVPPPPTYPSREYWSEPYPLPPPTPVLQEPQRPSPGAGGGPWGRVGDLAKERAGVYTKLCGVFPPHLVEAVMRRFPQLLDPQQLAAEILSYKSQHLSE
